# Results taken from patent publication US20030103978A1.
# Results are given in words; binding and its absence hold for the method and conditions named. Some results given as binding are weak or reduced against the parent protein; the word gives no strength.
# T1: human OPGbp[143-317] (human) (UniProt O14788)
# T1 sequence (looked up): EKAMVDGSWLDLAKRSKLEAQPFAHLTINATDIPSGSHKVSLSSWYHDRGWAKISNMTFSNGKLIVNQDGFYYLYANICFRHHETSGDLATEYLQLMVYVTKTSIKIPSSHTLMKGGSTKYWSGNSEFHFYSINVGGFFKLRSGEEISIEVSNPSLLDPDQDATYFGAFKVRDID
# Columns and labels:
# [1] = biological target: T1, human OPGbp[143-317] (human); assay: phage ELISA: Fab-displaying phage titrated (ul phage addition/well, log axis 0.1-100) on plated human OPGbp[143-317], anti-M13-HRP and ABTS, A405 nm, single points
# [2] = biological target: T1, human OPGbp[143-317] (human); assay: FRET competition assay: Fab (preparation B, TBS) preincubated with Eu-labelled OPGbp[143-317]; blocked partner: sODAR-Fc detected with anti-human Fc-APC; ratio 665 nm/620 nm against Conc (nM), log axis
# [3] = biological target: T1, human OPGbp[143-317] (human); assay: phage ELISA on plated OPGbp[143-317]
Binder,binding [1],binding [2],binding [3]
"Fab “AT” (Fab, V domains shown) VH: QVQLVQSGAEVRKPGASVKVSCKASGYDFSNYAIHWVRQAPGQRLEWMGWINAGNGNTKFSQKFQGRITVTRDTAASTAYMELRSLRSEDTAVYYCARDSSNMVRGIIIAYYFDYWGQGTLVTVSS VL: EIVMTQSPSSLSASVGDRVTITCRASQSISRYLNWYQLKPGKAPRLLIYGASSLQSGVPSRFSGSGSGAEFTLTISSLQPEDIATYYCQHTRAFGQGTKVEIKR",binds,binds,binds
"Fab “Y” (Fab, V domains shown) VH: EVQLVQSGAEVRKPGASVKVSCKASGYDFSNYAIHWVRQAPGQRLEWMGWINAGNGNTKFSQKFQGRITVTRDTAASTAYMELRSLRSEDTAVYYCARDSSNMVRGIIIAYYFDYWGQGTLVTVSS VL: EIVLTQSPATLSFSPGERATLSCRASQSVGSYLAWYQQRPGQAPRPLIYDATNRATGIPTRFSGSGSGTDFTLTISSLEPEDFATYYCQHRRTFGRGTKLEIKR",binds,binds,binds
"Fab “S” (Fab, V domains shown) VH: EVQLLESGGGLVQPGRSLRLSCAASGFTFDDYAMHWVRQAPGKGLEWVSGISWNSGRIGYADSVKGRFTISRDNAKNSLYLQMNSLRPEDTAFYYCAKGGSTSARYSSGWYYWGQGTLVTVSS VL: QSVLTQPPSVSVSPGQTATITCSGDALPKQYVYWYRQKPGQAPLLVIYEDSERPSGIPERFSGSSSGTEVTLSISGVQAEDEADYYCQSTDSSGTYVVFGGGTKLTVLS",binds,,binds
